From PubChem BioAssay AID2517 (National Center for Advancing Translational Sciences (NCATS), 2010)
In all, about 350,000 compounds went through this assay and about 1,200 (0.34%) were called active. This list was built around the results that the source calls inconclusive (neither active nor inactive); the mix of calls is not that of the screen. Calls come from the whole dose curve; as a rule, active = well fitted inhibition curve with a large enough effect; inconclusive = small, poorly fitted or top-dose-only effect; inactive = no such curve, though single readings can be large or run the other way. Where the call is inconclusive, the potency comes from a doubtful curve fit.

The chains behind the UniProt entries cited, without tags or fusion partners.
UniProt P27695, whole entry, looked up: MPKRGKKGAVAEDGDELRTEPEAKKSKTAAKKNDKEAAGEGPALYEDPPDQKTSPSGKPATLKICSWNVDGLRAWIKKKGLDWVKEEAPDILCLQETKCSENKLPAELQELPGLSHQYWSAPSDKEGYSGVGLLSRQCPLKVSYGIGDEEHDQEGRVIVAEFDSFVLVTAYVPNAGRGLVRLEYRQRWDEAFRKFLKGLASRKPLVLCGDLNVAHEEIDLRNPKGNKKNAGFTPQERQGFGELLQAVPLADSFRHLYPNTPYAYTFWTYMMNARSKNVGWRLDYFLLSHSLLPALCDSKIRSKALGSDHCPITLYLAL

target: DNA repair nuclease/redox regulator APEX1 (Homo sapiens) (UniProt P27695); experiment: qHTS Assay for Inhibitors of the Human Apurinic/apyrimidinic Endonuclease 1 (APE1); details: recombinant APE1, TAMRA/BHQ-2 abasic DNA cleavage fluorescence; series mostly up to 65.8 µM; note: nearly all actives have a fitted effect of over 55% in size
Procedure, shortened: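 Substrate: short duplex with […] THF abasic site, 5'-TAMRA and 3'-BHQ-2, 50 nM final. APE1 at 0.75 nM, preincubated 15 min RT with compound. Fluorescence increase from first to third read measured activity.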
Potency is the fitted concentration of half-maximal effect.

SMILES | Potency
Cc1noc(NS(=O)(=O)c2ccc(NC(=O)CS(=O)(=O)c3ccccc3)cc2)c1C | inconclusive: 5.01 µM [inhibitor, partial curve]
CCCCN(CC)S(=O)(=O)c1ccc(C(=O)Nc2nnc(COC)o2)cc1 | inconclusive: 44.7 µM [inhibitor, single point]
CCc1ccc(CNc2ccc(O)cc2)cc1 | inactive
CC(=O)Nc1cccc(C(=O)Nc2ccccc2C(=O)O)c1 | inconclusive: 25.1 µM [inhibitor, single point]
Cc1ccc(C(=O)CNc2ccccc2C)cc1 | inconclusive: 15.8 µM [inhibitor, partial curve, poor fit]
Cc1ccc(C(=O)O)cc1NC(=O)c1ccc2c(c1)C(=O)N(c1ccc([N+](=O)[O-])cc1)C2=O | inconclusive: 21.2 µM [inhibitor, single point]
COc1ccccc1NS(=O)(=O)c1cc(NC(=O)CNC(=O)c2ccc(C)s2)ccc1Cl | inconclusive: 0.355 µM [inhibitor, partial curve, poor fit]
COc1ccccc1C(=O)Nc1ncc2c(n1)CC(c1ccco1)CC2=O (stereo unspecified) | active: 17.8 µM
CCc1cc(CNC(=O)c2ccc(OC3CCN(CCc4ccccc4)CC3)cc2)on1 | active: 11.9 µM
CCN1CCN(C2=C(NS(=O)(=O)c3ccc(NC(C)=O)cc3)C(=O)c3ccccc3C2=O)CC1 | inactive
CC(C)N(CCc1ccncc1)C(=S)Nc1ccc(F)c(Cl)c1 | inconclusive: 28.2 µM [inhibitor, single point]
CN1CCN(c2ccc(Nc3c4ccccc4nc4ccccc34)cc2)CC1 | active: 22.4 µM
Cc1nc(N=Nc2ccc(C(=O)O)cc2)c(COP(=O)(O)O)c(C=O)c1O | inconclusive: 20 µM [inhibitor, partial curve]
c1ccc(Oc2ccccc2)cc1 | inconclusive: 2.24 µM [inhibitor, full curve]
C[N+]1(CC(=O)NNc2c3ccccc3nc3ccccc23)CCOCC1 | inconclusive: 35.5 µM [inhibitor, single point]
O=C(c1cc([N+](=O)[O-])ccc1N1CCCCC1)N1CCCC1 | inconclusive: 39.8 µM [inhibitor, partial curve, poor fit]
O=C(/C=C\c1ccc(O)c(O)c1)O[C@@H](Cc1ccc(O)c(O)c1)C(=O)O | active: 2.51 µM
O=C1[C@H]2[C@H]3[C@H](O)[C@H](O)C/C(=N/OCc4ccccc4)[C@H]3CC[C@@H]2C(=O)N1c1cccc(Oc2ccccc2)c1 | inconclusive: 7.08 µM [inhibitor, single point]
Cc1ccc(C#CC[N+](C)(C)CC#Cc2ccccc2)cc1 | inconclusive: 22.4 µM [inhibitor, single point]
CC[C@]12c3[nH]c4ccc(Cl)cc4c3CCN1C(=O)[C@@H](CC(=O)NC/C=C(\C)CCC=C(C)C)C[C@@H]2C(=O)N1CCN(C(=O)c2ccco2)CC1 | inactive
CN(C)c1cc2c(cc1NS(=O)(=O)c1ccccc1)n(C)c(=O)n2C | inconclusive: 23.8 µM [inhibitor, single point]
CCS(=O)(=O)C1=NN2C(=N)/C(=C\c3ccc(OCCOc4cccc(OC)c4)c(OC)c3)C(=O)N=C2S1 | inactive

Pulled by compound from above (five):
SMILES | Potency
CCc1cc(CNC(=O)c2ccc(OC3CCN(CCc4ccccc4)CC3)cc2)on1 | active: 11.9 µM
Cc1noc(NS(=O)(=O)c2ccc(NC(=O)CS(=O)(=O)c3ccccc3)cc2)c1C | inconclusive: 5.01 µM [inhibitor, partial curve]
COc1ccccc1C(=O)Nc1ncc2c(n1)CC(c1ccco1)CC2=O (stereo unspecified) | active: 17.8 µM
CC(C)N(CCc1ccncc1)C(=S)Nc1ccc(F)c(Cl)c1 | inconclusive: 28.2 µM [inhibitor, single point]
c1ccc(Oc2ccccc2)cc1 | inconclusive: 2.24 µM [inhibitor, full curve]

Carrying on:

SMILES | Potency
COc1ccc(CNC(=O)CCCn2nc(C)c([N+](=O)[O-])c2C)cc1OC | inconclusive: 22.4 µM [inhibitor, partial curve]
O=C(Nc1nnc(SCc2ccc(F)cc2)s1)c1ccc2ncsc2c1 | inconclusive: 44.7 µM [inhibitor, single point]
O=C(C[n+]1ccc(C(=O)N/N=C/c2ccc(OCc3ccccc3)cc2)cc1)c1ccccc1 | inconclusive: 3.98 µM [inhibitor, partial curve]
O=c1[nH][nH]c(=S)n1-c1ccccc1C(F)(F)F | inactive
Cc1ccc2c(c1)c(CC(NC(=O)c1ccccc1Oc1ccccc1)C(=O)O)cn2C(=O)OCc1ccccc1 (stereo unspecified) | inactive
COc1ccccc1OCC(=O)NNC(=S)NC(=O)c1ccco1 | inconclusive: 44.7 µM [inhibitor, partial curve, poor fit]
O=[N+]([O-])c1ccccc1NC(=S)N/N=C/c1ccc(O)c(O)c1 | inconclusive: 3.16 µM [inhibitor, partial curve]
O=C1C=C(O)c2cccc(O)c2C1=O | inconclusive: 11.2 µM [inhibitor, partial curve]
CC(=O)Nc1ccccc1-c1ccc(C)o1 | inconclusive: 0.0562 µM [inhibitor, full curve, poor fit]
O=C(Nc1ccc2c(c1)OCO2)c1cccc2c1C(=O)N(Cc1cccnc1)C2 | inconclusive: 39.8 µM [inhibitor, single point]
Cc1ccc(C)n1-c1nn(S(=O)(=O)c2cccc(C(F)(F)F)c2)c2cccc(F)c12 | inconclusive: 0.251 µM [inhibitor, full curve]
COc1ccc(O)c(/C=N/NC(=O)c2cccc(N3CCCC3=O)c2)c1 | inactive
CC(=O)n1nnc2ccccc21 | inconclusive: 0.562 µM [inhibitor, full curve, poor fit]
COc1ccc(-n2c(C)cc(/C=C3\SC(=S)N(Cc4ccco4)C3=O)c2C)cc1 | inactive
CC(=O)OCC1=C(C(=O)O)N2C(=O)C(NC(=O)CCn3nc(C)c(Cl)c3C)C2SC1 (stereo unspecified) | inconclusive: 39.8 µM [inhibitor, single point]
CCCC(=O)Nc1nc2nc(-c3ccccc3)cc(-c3ccccc3)n2n1 | inactive
CCOC(=O)CCCCC(=O)c1[nH]c(=O)[nH]c1CSc1nc2ccccc2[nH]1 | inconclusive: 5.62 µM [inhibitor, single point]
Cc1cc(C)n(-c2cc(C(C)(C)C)nc3c(-c4ccc(Cl)cc4)cnn23)n1 | inconclusive: 2.51 µM [inhibitor, partial curve]
CNc1nc2c(-c3ccc(Cl)cc3)nnn2c2ccccc12 | inconclusive: 29.9 µM [inhibitor, single point]
CCOC(=O)N1CCN(C(c2ccc(Cl)cc2)c2sc3nc(C)nn3c2O)CC1 (stereo unspecified) | inconclusive: 7.94 µM [inhibitor, single point]
Cc1ccc(OCCn2cc(Br)c(=O)[nH]c2=O)cc1 | inactive
COc1ccc(-c2ccc3c(c2)c(-c2cccs2)c(-c2cc(OC)cc(OC)c2)n3C)cc1 | inactive

SMILES | Potency
CC(C)n1nccc1N(Cc1ccc(Cl)cc1)S(=O)(=O)c1ccccc1 | inconclusive: 37.7 µM [inhibitor, single point]
Cc1cccc(N(CC(=O)NCc2ccccc2)C(=O)Cn2nnc(-c3ccc(C)o3)n2)c1 | inconclusive: 44.7 µM [inhibitor, single point]
Cc1ccc(/C=C/C(=O)Nc2ccc([N+](=O)[O-])c(NC(=O)/C=C/c3ccc(C)o3)c2)o1 | inconclusive: 31.6 µM [inhibitor, single point]
Oc1ccc(NCc2ccccc2OCc2ccccc2F)cc1 | inconclusive: 35.5 µM [inhibitor, single point]
CSCc1nc2sc(C(=O)Nc3nc(C)cs3)c(C)c2c(=O)[nH]1 | inconclusive: 0.447 µM [inhibitor, full curve, poor fit]
CC1CN(C)C(C)C/C1=N/Oc1ccccc1[N+](=O)[O-] (stereo unspecified) | inconclusive: 31.6 µM [inhibitor, single point]
Cn1c(N)c(C(=O)COC(=O)c2nc(Cl)ccc2Cl)c(=O)n(C)c1=O | inconclusive: 39.8 µM [inhibitor, single point]
COc1ccc(CSc2nc(N3CCOCC3)c3c(c2C#N)CC(C)(C)OC3)cc1 | inconclusive: 0.891 µM [inhibitor, single point]
Cc1ccc(NC(=O)C2CCN(C(=O)c3cccs3)CC2)c(C)c1 | inactive
CC(C)Cn1c(N)c(C(=O)NCc2cccs2)c2nc3ccccc3nc21 | inconclusive: 14.1 µM [inhibitor, single point]
CCOc1ccc(-c2nc(N)ncc2Oc2cccc(OC)c2)c(O)c1 | inconclusive: 25.1 µM [inhibitor, single point]
COc1ccccc1-n1nc(C)cc1N | inconclusive: 6.31 µM [inhibitor, partial curve]
Fc1ccc(C2=Nn3c(nnc3-c3n[nH]c4c3CCC4)SC2)cc1 | inconclusive: 39.8 µM [inhibitor, single point]
O=C(/C=C/c1ccco1)NC(=S)NNC(=O)c1ccco1 | inconclusive: 4.47 µM [inhibitor, single point]
CCCn1c(-c2ccc(F)cc2)nc2c(N3CCN(C)CC3)nc(C)nc21 | inconclusive: 0.398 µM [inhibitor, full curve, poor fit]
COc1cc(N=c2ssnc2Cl)cc(OC)c1OC | inactive
COc1ccc(N2CCN(C(=O)CCN3C(=S)NC(C)(C)CC3C)CC2)cc1 (stereo unspecified) | inconclusive: 7.08 µM [inhibitor, full curve, poor fit]
C=CC(C1=CC(=O)C(OC)=C(OC)C1=O)c1ccccc1 (stereo unspecified) | inactive
O=C(/C=C/c1ccccc1)NC1CCCc2ccccc21 (stereo unspecified) | inconclusive: 28.2 µM [inhibitor, single point]
O=c1c(-c2ccccc2)c[nH]n1-c1cccc([N+](=O)[O-])c1 | inconclusive: 0.126 µM [inhibitor, full curve]
O=C(CCCCCCCCC(=O)N/N=C/c1ccco1)N/N=C/c1ccco1 | inconclusive: 31.6 µM [inhibitor, single point]
Cc1ccc(C(=O)OC(C)C(=O)NC2CCCCC2C)s1 (stereo unspecified) | inactive
